According to PubChem BioAssay AID2551 (National Center for Advancing Translational Sciences (NCATS), 2010):
About 17,000 (5.5%) of roughly 310,000 compounds were called active. Inconclusive means that the source gave no clear call. Such entries were picked first, then a sample of the others. Calls follow the shape of the dose curve; as a rule, active = well fitted inhibition curve with a large enough effect; inconclusive = small, poorly fitted or top-dose-only effect, or effect the other way; inactive = no such curve, though single readings can be large or run the other way. A potency beside an inconclusive call is a rough fit, not a confirmed value.

The chains behind the UniProt entries cited, without tags or fusion partners. Where a name states a change or a piece, a line headed by the entry shows the natural chain unless it says otherwise.
UniProt P51450: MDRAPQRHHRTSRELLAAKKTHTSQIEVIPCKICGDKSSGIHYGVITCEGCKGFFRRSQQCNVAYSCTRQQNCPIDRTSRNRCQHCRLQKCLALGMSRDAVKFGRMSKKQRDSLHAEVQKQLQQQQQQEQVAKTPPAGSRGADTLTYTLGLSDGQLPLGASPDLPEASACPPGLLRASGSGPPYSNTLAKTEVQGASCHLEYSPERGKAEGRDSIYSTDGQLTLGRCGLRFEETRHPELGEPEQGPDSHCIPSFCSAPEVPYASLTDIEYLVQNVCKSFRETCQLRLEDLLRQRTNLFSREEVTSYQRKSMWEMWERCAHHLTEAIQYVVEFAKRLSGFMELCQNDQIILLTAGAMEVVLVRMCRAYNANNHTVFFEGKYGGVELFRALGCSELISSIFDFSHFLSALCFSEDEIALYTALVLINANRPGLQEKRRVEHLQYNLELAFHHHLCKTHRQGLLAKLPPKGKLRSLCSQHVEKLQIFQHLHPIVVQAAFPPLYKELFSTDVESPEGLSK

Each molecule was assayed against Nuclear receptor ROR-gamma (Mus musculus) (UniProt P51450) (assay: qHTS for inhibitors of ROR gamma transcriptional activity). Conditions: Drosophila S2 Gal4-RORgamma UAS-luciferase reporter, 20 h; activity change, negative = inhibition: at 53.6 µM (top of the series).
Procedure, shortened: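 ROR gamma transcriptional activity was tracked as Gal4-UAS luciferase output in stably transfected Drosophila Schneider cells, with compound added 1 hr before 700 uM copper sulfate induction and a 20 hr ambient-temperature incubation.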
% is scaled to controls: 0 for no effect and ±100 for the full control effect; potency is read from the fitted curve at half-maximal effect.
Also: nearly all actives have a fitted effect of over 60% in size.

Potency, active:
C=CCn1c(Sc2ncc([N+](=O)[O-])s2)n[nH]c1=O 4.47 µM
O=C(Nc1ccccc1)O/N=C/c1ccc(F)cc1 10 µM
COc1ccccc1C(=O)NNC(=S)NC(=O)c1sc2ccccc2c1Cl 12.6 µM
N/C(=N/O)c1nc(N2CCCC2)nc(N(c2ccccc2)c2ccccc2)n1 8.91 µM
CCOC(=O)c1sc(NC(=S)NC(=O)C2CC2)cc1C 1 µM
CC1(C)Cc2c(sc3ncnc(NNC(=S)NCc4ccccc4)c23)CO1 2.24 µM
COc1cccc(NC(=S)NCc2ccc3c(c2)cc(C)n3C)c1 4.47 µM
O=C(CNC(=O)c1ccccc1F)N/N=C/c1cc(Br)ccc1OC(=O)/C=C/c1ccco1 2.51 µM
NS(=O)(=O)c1ccc(NC(=S)Nc2ccn(Cc3cccc4ccccc34)n2)cc1 10 µM
COc1ccc(-c2csc(NC3OC(=O)c4c3ccc(OC)c4OC)n2)cc1OC (stereo unspecified) 3.55 µM

Potency, inconclusive:
COC(=O)c1ccc2c(=O)n(CC3CCCO3)c(SCC(=O)Nc3ccccc3Cl)nc2c1 (stereo unspecified) 35.5 µM [inhibitor, single point]
CCN(CC)CCOC(=O)c1ccc(N/C=C(/C#N)c2nc(-c3ccc(OC)c(OC)c3)cs2)cc1 17.8 µM [inhibitor, single point]
Cc1ccc(CSc2nnc(C(F)(F)F)n2Cc2ccc(F)cc2)cc1 35.5 µM [activator, single point]
O=C(CCCCCn1c(=S)[nH]c2cc3c(cc2c1=O)OCO3)N1CCN(c2ccccc2)CC1 4.47 µM [inhibitor, partial curve]
COC(=O)c1ccc(NC(=S)N2CCN(Cc3ccccc3OC)CC2)cc1 35.5 µM [inhibitor, single point]
NC(=O)c1nsc(C(=O)N(Cc2ccccc2F)C(C(=O)NCC2CCCO2)c2ccc(F)cc2)c1N (stereo unspecified) 35.5 µM [activator, partial curve, poor fit]
O=C(Nc1ccc(-c2nc3ccccc3[nH]2)cc1)c1ccco1 31.6 µM [inhibitor, single point]
Cc1ccc([N+](=O)[O-])c(OCCn2cnc3ccccc32)c1 35.5 µM [activator, single point]
COc1ccc(NC2CC(=O)N(c3ccccc3)C2=O)cc1 (stereo unspecified) 15.8 µM [activator, partial curve, poor fit]
CCNC(=O)NC(=O)C(C)Sc1nc2ccccc2c(=O)n1-c1cccnc1 (stereo unspecified) 35.5 µM [activator, single point]
CCCn1c(=NC(=O)c2c(-c3c(F)cccc3Cl)noc2C)c(C(=O)OCC)cc2c(=O)n3ccccc3nc21 0.562 µM [activator, full curve]
O=C(Nc1nnc(CC(c2ccccc2)c2ccccc2)s1)c1ccco1 35.5 µM [inhibitor, single point]
C=CCn1c(SCc2nc3scc(-c4ccccc4)c3c(=O)[nH]2)nnc1-c1ccccc1F 10 µM [activator, partial curve]
COc1ccc(-c2nc3cnc(N4CCNCC4)nc3n(CCC#N)c2=O)cc1 35.5 µM [inhibitor, single point]
CN(c1ccccc1)S(=O)(=O)c1ccc(Cl)c(C(=O)NCCc2c[nH]c3ccccc23)c1 14.1 µM [activator, partial curve]
C=CCn1c(C(C)NC(=O)c2ccc(C)cc2)n[nH]c1=S (stereo unspecified) 1.58 µM [inhibitor, single point]
CN(CC(=O)Nc1ccc(C#N)cc1)CC(=O)Nc1ccc(N2CCOCC2)cc1 1.78 µM [activator, partial curve]
CCOC(=O)C1=C(c2ccccc2)NC(=O)NC1c1cc(Br)c(O)c(OC)c1 (stereo unspecified) 35.5 µM [inhibitor, single point]
Cc1cc(C)cc(OCC(=O)NNC(=S)NC(=O)C2CC2)c1 7.08 µM [inhibitor, full curve, poor fit]
COc1ccc(-c2cc(-c3n[nH]c(=S)n3-c3cc(OC)ccc3OC)[nH]n2)cc1 8.91 µM [inhibitor, single point]
COc1cc2c(cc1C(F)(F)F)N(C(=O)Nc1cc(F)cc(-c3cccnc3)c1)CC2 12.6 µM [activator, partial curve, poor fit]
O=C(Nc1nnc(SCc2ccc(Cl)cc2Cl)s1)C1COc2ccccc2O1 (stereo unspecified) 22.4 µM [inhibitor, single point]
CC(=O)CSc1nc2c(c(=O)[nH]c(=O)n2C)n1CCCc1ccccc1 0.708 µM [activator, single point]
Cc1ccc(C)c(OCCCC(=O)Nc2ccccc2C(N)=O)c1 35.5 µM [inhibitor, single point]

Pulled by compound from the entries so far (three):
Potency, inconclusive:
COc1ccc(-c2nc3cnc(N4CCNCC4)nc3n(CCC#N)c2=O)cc1 35.5 µM [inhibitor, single point]
O=C(Nc1nnc(SCc2ccc(Cl)cc2Cl)s1)C1COc2ccccc2O1 (stereo unspecified) 22.4 µM [inhibitor, single point]
CCCn1c(=NC(=O)c2c(-c3c(F)cccc3Cl)noc2C)c(C(=O)OCC)cc2c(=O)n3ccccc3nc21 0.562 µM [activator, full curve]

Following part:

Activity change, negative = inhibition, inactive:
c1ccc(-c2ccccc2OCCOCCN2CCOCC2)cc1 -25.6%
COc1ccc(Oc2ncc3ncc(=O)n(C4CC4)c3n2)cc1 11.9%
O=C(Cn1c(=O)oc2cccnc21)Nc1ccc(C(F)(F)F)cc1 1.17%
CCN(CC)CCSc1nc2ccccc2c(=S)n1-c1ccccc1 -39.8%
CCOC(=O)N1CCN(C(=O)COc2ccc(S(=O)(=O)NC(C)C)cc2)CC1 16%
O=C(O)CCc1nnc(SCC(=O)Nc2ccc(Cl)c(C(F)(F)F)c2)[nH]c1=O 22.2%
CCCNC(=O)c1c(N)n(-c2cc(OC)cc(OC)c2)c2nc3ccccc3nc12 -2.94%
CC(=O)N/N=C\c1cccc(OC/C=C/c2ccccc2)c1 -0.0781%
NC(=NCCc1c[nH]c2ccccc12)NS(=O)(=O)c1ccc2ccccc2c1 -5.26%
CN(Cc1ccccc1)C(=O)COc1ccccc1Cl 32%
Cc1cccc(/C(N)=N/OC(=O)Cc2cccc3ccccc23)c1 -19.7%
c1ccc(Cc2nnc3sc(-c4ccncc4)nn23)cc1 0.944%
